# Measurements reported in the supplement of paper PMC10849652.
# Amino acid sequences for entries named in this document (tags omitted). A change or cut given only in a name is not applied to a line headed by its entry.
# UniProt Q96GA7: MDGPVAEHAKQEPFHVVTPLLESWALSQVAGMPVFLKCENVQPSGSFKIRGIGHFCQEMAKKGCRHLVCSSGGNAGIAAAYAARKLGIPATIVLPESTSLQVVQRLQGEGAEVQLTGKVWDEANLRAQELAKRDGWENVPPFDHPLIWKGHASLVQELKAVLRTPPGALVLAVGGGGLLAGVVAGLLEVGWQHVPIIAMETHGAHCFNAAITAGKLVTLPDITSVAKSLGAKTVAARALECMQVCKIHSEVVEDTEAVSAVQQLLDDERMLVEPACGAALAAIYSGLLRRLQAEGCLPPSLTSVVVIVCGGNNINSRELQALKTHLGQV
# UniProt Q9Y224: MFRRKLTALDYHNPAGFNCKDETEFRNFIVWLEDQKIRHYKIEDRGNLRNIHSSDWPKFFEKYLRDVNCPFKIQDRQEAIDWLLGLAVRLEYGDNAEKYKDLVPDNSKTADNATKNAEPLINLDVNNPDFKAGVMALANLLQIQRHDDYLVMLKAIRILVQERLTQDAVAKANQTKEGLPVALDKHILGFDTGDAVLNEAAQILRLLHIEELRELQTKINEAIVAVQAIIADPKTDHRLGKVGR
# UniProt O95248: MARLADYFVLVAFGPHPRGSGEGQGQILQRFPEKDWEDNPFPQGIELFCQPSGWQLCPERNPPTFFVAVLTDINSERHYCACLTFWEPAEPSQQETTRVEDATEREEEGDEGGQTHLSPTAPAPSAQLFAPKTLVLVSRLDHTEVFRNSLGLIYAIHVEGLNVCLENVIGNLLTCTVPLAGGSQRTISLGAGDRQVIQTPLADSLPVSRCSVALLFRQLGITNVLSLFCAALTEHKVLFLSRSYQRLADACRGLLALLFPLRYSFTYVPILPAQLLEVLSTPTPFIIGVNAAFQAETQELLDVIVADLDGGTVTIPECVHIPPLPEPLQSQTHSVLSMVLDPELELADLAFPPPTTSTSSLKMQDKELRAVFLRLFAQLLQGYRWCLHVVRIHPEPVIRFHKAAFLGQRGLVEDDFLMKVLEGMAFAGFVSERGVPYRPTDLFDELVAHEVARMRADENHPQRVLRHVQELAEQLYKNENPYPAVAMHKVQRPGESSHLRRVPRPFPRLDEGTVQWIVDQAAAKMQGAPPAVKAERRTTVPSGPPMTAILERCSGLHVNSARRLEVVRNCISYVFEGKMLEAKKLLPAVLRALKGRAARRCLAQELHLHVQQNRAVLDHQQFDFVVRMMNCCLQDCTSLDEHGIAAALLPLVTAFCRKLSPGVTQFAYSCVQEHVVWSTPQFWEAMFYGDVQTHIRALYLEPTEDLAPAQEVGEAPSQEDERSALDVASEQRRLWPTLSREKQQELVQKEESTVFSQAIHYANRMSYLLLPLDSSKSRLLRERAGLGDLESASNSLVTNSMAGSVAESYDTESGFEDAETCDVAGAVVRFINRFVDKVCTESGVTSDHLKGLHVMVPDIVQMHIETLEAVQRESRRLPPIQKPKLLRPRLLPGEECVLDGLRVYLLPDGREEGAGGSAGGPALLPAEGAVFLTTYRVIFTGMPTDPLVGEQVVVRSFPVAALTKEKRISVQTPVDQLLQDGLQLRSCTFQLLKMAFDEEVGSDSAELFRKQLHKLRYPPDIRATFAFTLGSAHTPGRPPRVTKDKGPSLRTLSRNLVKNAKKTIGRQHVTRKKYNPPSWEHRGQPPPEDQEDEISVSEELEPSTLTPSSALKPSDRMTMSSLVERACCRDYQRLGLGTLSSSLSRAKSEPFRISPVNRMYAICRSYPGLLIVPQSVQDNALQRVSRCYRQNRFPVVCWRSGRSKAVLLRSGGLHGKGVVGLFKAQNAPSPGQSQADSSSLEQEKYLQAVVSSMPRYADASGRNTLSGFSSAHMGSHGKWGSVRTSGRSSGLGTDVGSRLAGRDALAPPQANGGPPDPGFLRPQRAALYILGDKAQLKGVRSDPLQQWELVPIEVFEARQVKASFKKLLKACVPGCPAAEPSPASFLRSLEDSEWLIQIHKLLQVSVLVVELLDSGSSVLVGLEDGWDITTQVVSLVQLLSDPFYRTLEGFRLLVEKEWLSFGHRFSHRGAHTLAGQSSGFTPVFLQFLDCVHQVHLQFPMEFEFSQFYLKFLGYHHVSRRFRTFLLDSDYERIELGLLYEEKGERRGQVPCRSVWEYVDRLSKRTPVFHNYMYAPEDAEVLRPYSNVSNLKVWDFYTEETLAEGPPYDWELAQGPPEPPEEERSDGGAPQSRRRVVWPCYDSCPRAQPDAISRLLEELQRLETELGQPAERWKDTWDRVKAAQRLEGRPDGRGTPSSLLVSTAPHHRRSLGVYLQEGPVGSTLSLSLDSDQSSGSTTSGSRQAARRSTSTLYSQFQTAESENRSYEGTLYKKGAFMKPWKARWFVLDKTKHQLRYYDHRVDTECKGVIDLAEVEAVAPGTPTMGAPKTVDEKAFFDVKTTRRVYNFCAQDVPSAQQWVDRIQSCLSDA
# UniProt Q0VDG4: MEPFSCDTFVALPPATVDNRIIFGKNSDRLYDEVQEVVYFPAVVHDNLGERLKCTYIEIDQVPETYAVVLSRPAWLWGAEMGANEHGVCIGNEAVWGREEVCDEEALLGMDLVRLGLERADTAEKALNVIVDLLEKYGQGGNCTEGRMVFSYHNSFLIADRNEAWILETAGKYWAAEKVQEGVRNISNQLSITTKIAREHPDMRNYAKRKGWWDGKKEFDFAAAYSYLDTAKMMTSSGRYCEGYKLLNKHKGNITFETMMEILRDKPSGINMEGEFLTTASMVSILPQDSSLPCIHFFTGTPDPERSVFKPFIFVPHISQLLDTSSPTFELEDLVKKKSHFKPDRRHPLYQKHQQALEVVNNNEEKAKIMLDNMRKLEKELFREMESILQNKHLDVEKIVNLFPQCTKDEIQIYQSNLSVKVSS
# UniProt Q9Y3B9: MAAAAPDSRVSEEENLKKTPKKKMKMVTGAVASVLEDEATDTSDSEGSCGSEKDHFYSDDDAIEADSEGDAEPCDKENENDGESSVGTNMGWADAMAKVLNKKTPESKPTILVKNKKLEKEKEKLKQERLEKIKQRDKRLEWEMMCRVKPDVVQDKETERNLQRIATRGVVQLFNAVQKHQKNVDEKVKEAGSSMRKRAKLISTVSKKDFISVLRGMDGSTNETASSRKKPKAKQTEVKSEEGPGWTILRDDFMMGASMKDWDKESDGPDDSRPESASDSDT
# UniProt Q9BRK5: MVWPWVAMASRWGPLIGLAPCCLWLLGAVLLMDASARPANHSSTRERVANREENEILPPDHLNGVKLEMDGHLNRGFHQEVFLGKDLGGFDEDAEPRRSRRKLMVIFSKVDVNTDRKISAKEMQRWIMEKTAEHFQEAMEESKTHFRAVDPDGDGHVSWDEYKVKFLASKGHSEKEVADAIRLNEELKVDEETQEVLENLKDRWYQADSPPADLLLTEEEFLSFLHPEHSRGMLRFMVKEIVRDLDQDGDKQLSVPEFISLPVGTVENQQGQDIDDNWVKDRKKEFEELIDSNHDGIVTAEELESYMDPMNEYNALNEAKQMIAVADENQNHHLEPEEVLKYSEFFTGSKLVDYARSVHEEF
# UniProt P82979: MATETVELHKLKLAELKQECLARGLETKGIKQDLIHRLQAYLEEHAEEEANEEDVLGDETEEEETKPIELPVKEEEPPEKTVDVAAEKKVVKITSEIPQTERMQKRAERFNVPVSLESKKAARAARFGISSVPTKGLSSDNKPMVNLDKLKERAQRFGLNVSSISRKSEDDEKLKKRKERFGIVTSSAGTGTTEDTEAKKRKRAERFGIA
# UniProt O15027: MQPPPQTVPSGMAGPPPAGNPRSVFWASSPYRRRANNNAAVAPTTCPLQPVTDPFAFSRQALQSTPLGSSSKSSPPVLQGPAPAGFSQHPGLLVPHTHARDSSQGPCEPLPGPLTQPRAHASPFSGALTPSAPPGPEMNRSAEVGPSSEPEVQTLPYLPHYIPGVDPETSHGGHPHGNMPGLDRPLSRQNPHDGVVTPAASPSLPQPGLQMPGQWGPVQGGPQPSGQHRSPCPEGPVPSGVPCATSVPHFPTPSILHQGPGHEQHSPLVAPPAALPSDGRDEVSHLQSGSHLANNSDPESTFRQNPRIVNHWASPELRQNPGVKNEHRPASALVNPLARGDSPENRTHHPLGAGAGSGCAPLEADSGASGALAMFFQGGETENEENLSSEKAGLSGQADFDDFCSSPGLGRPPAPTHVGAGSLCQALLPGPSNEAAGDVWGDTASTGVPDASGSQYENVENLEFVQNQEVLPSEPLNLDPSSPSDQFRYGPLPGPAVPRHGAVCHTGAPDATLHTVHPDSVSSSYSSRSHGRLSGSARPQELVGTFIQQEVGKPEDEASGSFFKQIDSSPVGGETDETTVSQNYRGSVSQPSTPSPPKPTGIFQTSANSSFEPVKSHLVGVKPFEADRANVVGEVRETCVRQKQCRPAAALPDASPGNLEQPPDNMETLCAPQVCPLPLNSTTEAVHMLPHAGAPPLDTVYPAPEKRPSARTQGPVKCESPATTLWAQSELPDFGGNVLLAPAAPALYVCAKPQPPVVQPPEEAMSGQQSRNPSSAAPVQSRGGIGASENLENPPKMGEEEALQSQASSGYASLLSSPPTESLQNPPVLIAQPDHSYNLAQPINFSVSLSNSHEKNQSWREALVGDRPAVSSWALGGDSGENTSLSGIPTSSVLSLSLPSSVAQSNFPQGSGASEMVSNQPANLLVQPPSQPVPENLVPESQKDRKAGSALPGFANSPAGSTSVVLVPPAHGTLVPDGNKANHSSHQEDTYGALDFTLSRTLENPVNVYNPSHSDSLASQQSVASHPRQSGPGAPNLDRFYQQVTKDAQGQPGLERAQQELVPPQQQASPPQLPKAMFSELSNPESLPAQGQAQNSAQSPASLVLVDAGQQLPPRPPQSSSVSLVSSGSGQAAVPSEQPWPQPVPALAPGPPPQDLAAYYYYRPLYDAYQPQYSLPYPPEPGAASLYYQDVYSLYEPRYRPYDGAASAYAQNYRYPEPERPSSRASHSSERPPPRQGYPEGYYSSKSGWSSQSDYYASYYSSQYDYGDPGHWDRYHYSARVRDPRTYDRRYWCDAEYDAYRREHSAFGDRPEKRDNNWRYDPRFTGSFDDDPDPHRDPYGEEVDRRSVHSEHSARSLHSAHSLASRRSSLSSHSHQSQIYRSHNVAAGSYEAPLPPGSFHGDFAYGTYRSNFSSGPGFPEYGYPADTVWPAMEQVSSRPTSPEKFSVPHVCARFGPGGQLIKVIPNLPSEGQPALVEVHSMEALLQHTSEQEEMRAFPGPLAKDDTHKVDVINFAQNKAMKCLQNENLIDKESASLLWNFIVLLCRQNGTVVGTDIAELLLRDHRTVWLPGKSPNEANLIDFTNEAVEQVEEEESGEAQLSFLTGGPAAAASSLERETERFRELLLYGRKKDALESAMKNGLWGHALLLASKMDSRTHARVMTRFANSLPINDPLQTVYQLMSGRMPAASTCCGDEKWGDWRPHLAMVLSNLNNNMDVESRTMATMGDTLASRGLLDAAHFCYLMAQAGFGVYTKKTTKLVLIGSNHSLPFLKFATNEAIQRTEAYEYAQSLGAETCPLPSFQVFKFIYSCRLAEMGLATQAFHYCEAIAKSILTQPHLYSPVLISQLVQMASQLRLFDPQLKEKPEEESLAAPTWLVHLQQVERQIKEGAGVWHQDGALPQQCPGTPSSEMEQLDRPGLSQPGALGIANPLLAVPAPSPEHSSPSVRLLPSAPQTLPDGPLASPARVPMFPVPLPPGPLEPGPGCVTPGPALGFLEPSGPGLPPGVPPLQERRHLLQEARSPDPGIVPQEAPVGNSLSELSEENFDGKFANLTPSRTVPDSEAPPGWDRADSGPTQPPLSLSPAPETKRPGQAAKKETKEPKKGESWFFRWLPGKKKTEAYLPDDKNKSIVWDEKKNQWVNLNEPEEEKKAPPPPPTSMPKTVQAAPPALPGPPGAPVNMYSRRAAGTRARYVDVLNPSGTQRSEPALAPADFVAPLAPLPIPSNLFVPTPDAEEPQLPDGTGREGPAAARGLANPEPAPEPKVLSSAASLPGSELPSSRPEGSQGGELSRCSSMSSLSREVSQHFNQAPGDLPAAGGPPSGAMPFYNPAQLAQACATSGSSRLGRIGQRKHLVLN
# UniProt Q15404: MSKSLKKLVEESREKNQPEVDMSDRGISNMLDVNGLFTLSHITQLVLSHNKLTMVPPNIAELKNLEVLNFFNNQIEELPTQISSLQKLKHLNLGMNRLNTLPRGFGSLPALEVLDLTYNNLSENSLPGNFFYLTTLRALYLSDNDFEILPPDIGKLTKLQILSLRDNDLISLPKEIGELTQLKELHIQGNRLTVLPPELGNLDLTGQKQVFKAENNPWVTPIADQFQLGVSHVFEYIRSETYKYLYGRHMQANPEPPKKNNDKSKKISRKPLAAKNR
# UniProt Q9HCN8: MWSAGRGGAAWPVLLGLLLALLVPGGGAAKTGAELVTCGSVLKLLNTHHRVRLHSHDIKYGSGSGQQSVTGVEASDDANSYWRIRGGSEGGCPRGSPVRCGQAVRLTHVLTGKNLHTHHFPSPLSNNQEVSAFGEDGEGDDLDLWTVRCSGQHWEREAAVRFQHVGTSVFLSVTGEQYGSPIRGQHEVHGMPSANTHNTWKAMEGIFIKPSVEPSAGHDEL
# The other results are listed elsewhere or left out.
# Tests used:
# Test in all cases: log2 fold change, soluble protein after heating vs DMSO (PISA); higher = thermal stabilisation; K562 cells, 10 uM, 30 min; active = over 0.2 and 3.5 SD of the protein, either way, in both replicates (recomputed)
# [1] = compound: NC(=O)Nc1cc(-c2cccc(F)c2)sc1C(=O)N[C@H]1CCCNC1
# In short: (§1)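 Soluble protein was quantified by TMTpro 16plex LC-MS/MS after channel sums were equalised. It was obtained as the supernatant after 21,000xg for 90 min from pooled aliquots of K562 cells (2×10^6 cells/mL, 10 μM compound, 30 min) heated for 3 min across 48°C-58°C and extracted in PBS with 0.5% NP-40 at 4°C. Thermal stability values are relative to control samples and come from duplicates. They are given as log2 fold changes.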
# [2] = compound: NC(=O)c1cnc(N[C@@H]2CCCC[C@@H]2N)nc1Nc1cccc(-n2nccn2)c1
# In short: as §1
# [3] = compound: NC1(c2ccc(-c3nc4ccn5c(=O)[nH]nc5c4cc3-c3ccccc3)cc2)CCC1
# In short: as §1
# [4] = compound: NCC(=O)Nc1ccc(-n2nc(C(F)(F)F)cc2-c2ccc3c(ccc4ccccc43)c2)cc1
# In short: as §1
# entinostat = compound: Nc1ccccc1NC(=O)c1ccc(CNC(=O)OCc2cccnc2)cc1 [entinostat]
# In short: as §1
# vorinostat = compound: O=C(CCCCCCC(=O)Nc1ccccc1)NO [vorinostat]
# In short: as §1
# citarinostat = compound: O=C(CCCCCCNC(=O)c1cnc(N(c2ccccc2)c2ccccc2Cl)nc1)NO [citarinostat]
# In short: as §1
# silmitasertib = compound: O=C(O)c1ccc2c(c1)nc(Nc1cccc(Cl)c1)c1ccncc12 [silmitasertib]
# In short: as §1
# [5] = compound: O=C1NC(=O)C(c2cnc3ccccn23)=C1c1cn2c3c(cc(F)cc13)CN(C(=O)N1CCCCC1)CC2
# In short: as §1
# [6] = compound: c1cc(OCCN2CCCCC2)cc(-c2n[nH]c3ccc(-c4nnc[nH]4)cc23)c1
# In short: as §1
Target,log2 fold change [1],log2 fold change [2],log2 fold change [3],log2 fold change [4],log2 fold change (entinostat),log2 fold change (vorinostat),log2 fold change (citarinostat),log2 fold change (silmitasertib),log2 fold change [5],log2 fold change [6]
RTCA (UniProt O00442),inactive: 0.021,inactive: 0,inactive: -0.111,inactive: 0.02,inactive: 0.067,inactive: 0.035,inactive: 0.044,inactive: 0.011,inactive: -0.046,inactive: -0.014
SDSL (UniProt Q96GA7),inactive: -0.015,inactive: 0.043,inactive: -0.033,inactive: 0.116,inactive: 0.017,inactive: -0.008,inactive: 0.032,inactive: -0.002,inactive: -0.036,inactive: -0.01
SCAP (UniProt Q12770),inactive: 0.043,inactive: 0.039,inactive: -0.071,inactive: -0.065,inactive: 0.065,inactive: -0.023,inactive: 0.015,inactive: 0.068,inactive: 0.021,inactive: -0.099
RTRAF (UniProt Q9Y224),inactive: 0.012,inactive: -0.009,inactive: 0.063,inactive: 0.022,inactive: -0.028,inactive: -0.043,inactive: 0.014,inactive: 0.087,inactive: 0.063,inactive: -0.071
RTN4 (UniProt Q9NQC3),inactive: 0.008,inactive: -0.006,inactive: -0.021,inactive: -0.029,inactive: -0.016,inactive: -0.018,inactive: 0.058,inactive: 0.01,inactive: -0.019,inactive: -0.068
SEC24B isoform 3 (UniProt O95487),inactive: -0.057,inactive: 0.023,inactive: -0.045,inactive: -0.02,inactive: 0.13,inactive: 0.038,inactive: 0.043,inactive: 0.09,inactive: -0.023,inactive: -0.06
SEC23B (UniProt Q15437),inactive: 0.013,inactive: -0.01,inactive: -0.04,inactive: -0.014,inactive: 0.009,inactive: -0.002,inactive: 0.052,inactive: 0,inactive: -0.029,inactive: -0.025
SCD (UniProt O00767),inactive: -0.064,inactive: -0.151,inactive: -0.071,inactive: -0.054,inactive: -0.043,active: -0.382,active: -0.403,inactive: 0.083,inactive: 0.051,inactive: -0.005
SBF1 isoform 4 (UniProt O95248),inactive: -0.006,inactive: 0.078,inactive: -0.017,inactive: 0.043,inactive: -0.03,inactive: 0.041,inactive: 0,inactive: -0.012,inactive: 0.062,inactive: -0.391
SCRN3 (UniProt Q0VDG4),inactive: 0.009,inactive: 0.004,inactive: -0.098,inactive: -0.015,inactive: 0.004,inactive: 0.017,inactive: -0.003,inactive: 0.011,inactive: 0.008,inactive: 0.034
SCAMP4 (UniProt Q969E2),inactive: -0.101,inactive: 0.041,inactive: 0.004,inactive: 0.014,inactive: -0.079,inactive: -0.078,inactive: -0.047,inactive: -0.024,inactive: -0.039,inactive: 0
RSL1D1 (UniProt O76021),inactive: -0.001,inactive: 0.207,inactive: 0.339,inactive: 0.188,inactive: -0.133,inactive: -0.016,inactive: -0.105,inactive: 0.329,inactive: 0.409,inactive: -0.265
SARG (UniProt Q9BW04),inactive: 0.007,inactive: 0.024,inactive: -0.04,inactive: -0.066,inactive: -0.012,inactive: 0.07,inactive: 0.034,inactive: -0.014,inactive: -0.01,inactive: 0.039
RTN3 (UniProt O95197),inactive: 0.003,inactive: -0.044,inactive: -0.019,inactive: -0.003,inactive: -0.012,inactive: -0.042,inactive: -0.023,inactive: 0.013,inactive: -0.015,inactive: -0.008
RRP15 (UniProt Q9Y3B9),inactive: 0.097,inactive: 0.019,inactive: 0.072,inactive: 0.126,inactive: -0.042,inactive: -0.061,inactive: 0.052,inactive: 0.022,inactive: 0.02,inactive: -0.022
SAAL1 (UniProt Q96ER3),inactive: -0.091,inactive: 0.031,inactive: -0.207,inactive: -0.058,inactive: 0.04,inactive: 0.006,inactive: 0.011,inactive: 0.119,inactive: -0.04,inactive: -0.013
SDF4 (UniProt Q9BRK5),inactive: 0.022,inactive: 0.05,inactive: 0.024,inactive: 0.056,inactive: -0.026,inactive: -0.025,inactive: 0.01,inactive: -0.002,inactive: -0.005,inactive: -0.013
SCFD1 (UniProt Q8WVM8),inactive: 0.047,inactive: -0.038,inactive: -0.06,inactive: -0.064,inactive: 0.017,inactive: 0.043,inactive: 0.049,inactive: -0.008,inactive: 0.002,inactive: -0.034
SARNP (UniProt P82979),inactive: 0.004,inactive: -0.111,inactive: 0.122,inactive: -0.076,inactive: -0.083,inactive: -0.137,inactive: -0.1,inactive: 0,inactive: -0.039,inactive: -0.023
SAE1 (UniProt Q9UBE0),inactive: -0.018,inactive: -0.094,inactive: -0.041,inactive: -0.031,inactive: 0.019,inactive: 0,inactive: 0.041,inactive: 0.038,inactive: -0.065,inactive: -0.001
SEC16A isoform 5 (UniProt O15027),inactive: 0.006,inactive: -0.072,inactive: -0.14,inactive: 0.055,inactive: 0.071,inactive: 0.154,inactive: 0.071,inactive: -0.007,inactive: 0.191,inactive: -0.022
RSU1 (UniProt Q15404),inactive: -0.019,inactive: -0.026,inactive: 0.036,inactive: 0.03,inactive: -0.039,inactive: -0.061,inactive: 0.033,inactive: -0.04,inactive: -0.078,inactive: -0.046
SCRN2 (UniProt Q96FV2),inactive: -0.052,inactive: 0.044,inactive: -0.09,inactive: -0.069,inactive: -0.016,inactive: -0.009,inactive: 0.042,inactive: -0.003,inactive: -0.029,inactive: 0.01
SEC13 isoform 3 (UniProt P55735),inactive: -0.065,inactive: -0.047,inactive: -0.06,inactive: -0.019,inactive: -0.007,inactive: 0.024,inactive: 0.002,inactive: 0.115,inactive: -0.051,inactive: -0.105
SACS (UniProt Q9NZJ4),inactive: 0.152,inactive: -0.027,inactive: 0.025,inactive: -0.18,inactive: 0.071,inactive: 0.177,inactive: 0.076,inactive: 0.149,inactive: 0.003,inactive: -0.032
SCAF11 (UniProt Q99590),inactive: 0.019,inactive: 0.073,inactive: 0.129,inactive: -0.003,inactive: -0.054,inactive: 0.12,inactive: -0.13,inactive: -0.038,inactive: 0.147,inactive: -0.29
SEC24D isoform 2 (UniProt O94855),inactive: -0.03,inactive: -0.016,inactive: -0.079,inactive: -0.042,inactive: 0.007,inactive: 0.027,inactive: 0.072,inactive: 0.069,inactive: -0.044,inactive: 0.001
SDF2L1 (UniProt Q9HCN8),inactive: -0.025,inactive: -0.066,inactive: 0.002,inactive: 0.013,inactive: -0.007,inactive: 0.028,inactive: -0.007,inactive: 0.041,inactive: -0.003,inactive: -0.08
SAR1A (UniProt Q9NR31),inactive: -0.048,inactive: 0.073,inactive: -0.156,inactive: -0.019,inactive: 0.012,inactive: -0.029,inactive: 0.081,inactive: 0.027,inactive: -0.04,inactive: -0.011
SCCPDH (UniProt Q8NBX0),inactive: -0.113,inactive: -0.056,inactive: 0.045,inactive: -0.024,inactive: -0.071,inactive: 0.062,inactive: 0.199,inactive: -0.004,inactive: 0.123,inactive: 0.33
